Values of other authors as cited in patent US20160311826A1, “SGC STIMULATORS” (IRONWOOD PHARMACEUTICALS, INC., priority 2013, published 2016).
At least one compound was matched to its structure with a doubt left.

System: mdx mouse
Details: cited from earlier work

CN1CC(=O)N2[C@H](c3ccc4c(c3)OCO4)c3[nH]c4ccccc4c3C[C@@H]2C1=O [tadalafil]
cardiac dynamics (mdx mice): improve cardiac dynamics | muscle ischemia, injury and fatigue after a brief bout of exercise (mdx mouse): alleviate muscle ischemia, as well as injury and fatigue
